# Measurements published in article PMC5996148.
# “And” between values parts separate entries of the source, which are not always exact repeats. Identical values can stand only once. The list shows a part of the results.
# How the values were obtained:
# Assay in all cases: protein microarray (ProtoArray v5.0), streptavidin-Alexa Fluor 647
# Conditions in all cases: 3'-biotin; 20 mM Tris (pH 7.5), 5 mM MgCl2, 100 mM KCl, 0.1% Tween-20, A/T-rich and random oligonucleotide blockers; temperature not stated; high values mean tight binding
# [1] = tested on: Granulocyte colony-stimulating factor (human)
# [2] = tested on: Gremlin-1 (human)
# [3] = tested on: Guanine nucleotide exchange factor for Rab3A (human)
# [4] = tested on: Guanine nucleotide-binding protein subunit alpha-11 (human)
# [5] = tested on: Guanylate cyclase activator 2B (human)
# [6] = tested on: HAAO (human)
# [7] = tested on: HAS3 (human)
# [8] = tested on: HAVCR2 (human)
# [9] = tested on: HAX1 (human)
# [10] = tested on: HBD (human)
sequence,measurement,setting,value
GGGAGGCTGAGGCAGG [G4-1 biotinylated (PQS2)],binding signal,[1],-0.275 z-score
same,binding signal,[2],-0.319 z-score
same,binding signal,[3],-0.333 z-score
same,binding signal,[4],-0.337 z-score
same,binding signal,[5],-0.328 z-score
same,binding signal,[6],-0.358 z-score
same,binding signal,[7],-0.323 z-score
same,binding signal,[8],-0.358 z-score
same,binding signal,[9],-0.321 z-score and -0.346 z-score
same,binding signal,[10],-0.319 z-score
